Source: PMC12496174
No constants are given. Whether binding was seen depends on the method and setting. In cells and extracts the contact can be indirect. Here binding means that the protein was enriched with, or labelled near, the bait; the list need not be complete.

Target: T1, PLPPR3 S351 phospho-peptide LKRApSVDVDLLA
T1 sequence (peptide, phosphoserine (pS) at S351, the fifth residue of the peptide): LKRASVDVDLLA
Test: affinity purification with mass spectrometry; PLPPR3 pS351 or S351 peptide coupled to Sulfolink columns; 400 ul fresh adult mouse brain lysate (Ripa buffer) in 1600 ul PBS, 1.5 hours at room temperature; washed four times with PBS; eluted with 0.2 M glycine-HCl pH 2.5; SDS-PAGE, in-gel trypsin digest, LC-MS/MS, label-free quantification; four biological replicates; only the target purified

binding: binds
B1: brain acid soluble protein 1 (BASP1), endogenous in adult mouse brain lysate (protein, UniProt Q91XV3 1-226)
chain: MGGKLSKKKKGYNVNDEKAKDKDKKAEGAGTEEEGTPKESEPQAAADATEVKESTEEKPKDAADGEAKAEEKEADKAAAAKEEAPKAEPEKSEGAAEEQPEPAPAPEQEAAAPGPAAGGEAPKAGEASAESTGAADGAAPEEGEAKKTEAPAAAGPEAKSDAAPAASDSKPSSAEPAPSSKETPAASEAPSSAAKAPAPAAPAAAEPQAEAPAAAASSEQSVAVKE
